Test results: patent US20260263391A1, “COMPOUND AND USE THEREOF” (BENETHERA (SHAOXING) BIOTECHNOLOGY CO., LTD., priority 2023, published 2026)

What was measured:
Psoriasis mouse model [1] = conditions: more detailed dose exploration, 0.02% to 0.1% still effective
Method: Psoriasis mouse model was established by intradermal injection of recombinant […] (1 ng/20 μL PBS, per mouse per day for 4 consecutive days) into depilated mice on the back.
The calculation rule for the number of days was: the number of days will be calculated from the end of modeling, which will be recorded as Day 0, followed by Day 1, Day 2, etc.
Scoring criteria: 0 points, no symptom; 1 point, skin erythema; 2 points, scattered scurf, 3 points, diffuse dandruff, 4 points, skin sclerosis; 5 points, erythroderma or death.

Psoriasis mouse model [2] = conditions: 0.025% ointment, 200 mg applied on the back for 6 consecutive days

Structure (SMILES)	mass concentration in the ointment with significant therapeutic effect (Psoriasis mouse model [1])	skin score at the end of the experiment compared with the ointment group (Psoriasis mouse model [2])
CCCNCC(O)COc1ccccc1C(=O)CCc1ccccc1 (stereo not drawn) [Compound 1, propafenone]	0.02%-0.5%	significantly decreased
CCCNC[C@@H](O)COc1ccccc1C(=O)CCc1ccccc1 [Compound 3, R-propafenone]		significantly decreased
